The supplement of paper PMC12889115
The list shows a part of the results. Values are raw readings; no control value is given beside them.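 Primary screen: polymyxin B was added at a level permeabilizing Salmonella outer membranes while sparing inner membranes. DMSO wells, both with and without polymyxin B, established maximum growth. Plate-to-plate variation meant each plate was ranked on its own, and the lowest-OD600 compounds were selected as hits.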

Test system: Salmonella enterica serovar Typhimurium SL1344
Experiment: bacterial growth OD600 after 18 h with compound and polymyxin B; higher = more bacterial growth (less inhibition)
Conditions: 50 µM, Mueller-Hinton broth

Structure (SMILES)	bacterial growth OD600 (polymyxin B 1 µg/mL)	bacterial growth OD600 (polymyxin B 0.75 µg/mL)
O=C(c1ccccc1)N1CCCC(Nc2ccccc2)C1 (configuration not stated)	0.82	–
Oc1ccc(CN2CC[C@@H](N3CCN(c4ccccc4F)CC3)[C@H](O)C2)cc1	–	0.81
CC(=O)N1CCC[C@H]1C(=O)NCc1cccnc1-n1cnc2ccccc21	0.895	–
COCCN1C(=O)CC(CC(=O)N2CCC(C(O)c3ccccc3)CC2)(c2ccccc2F)C1=O (configuration not stated)	–	0.872
FC(F)(F)c1ccc(-c2cnnc(N3CCCC3c3nccs3)n2)cc1 (configuration not stated)	–	0.695
O=C1CC(NC2CCOCC2)CN1CCc1ccccc1 (configuration not stated)	1.02	–
CO[C@H]1[C@H](NC(=O)Cc2ccccc2)c2ccccc2C12CCN(Cc1ccc(NC(C)=O)cc1)CC2	–	1.03
COc1ccccc1-c1cn2c(C(=O)N(C)CCc3ccccn3)csc2n1	1.03	–
C=CCO[C@H]1[C@H](NC(=O)COC)c2ccccc2C12CCN(Cc1ccc(F)cc1Cl)CC2	–	0.952
CC(C)/C=C/C(=O)NCCN1Cc2ccccc2OC(c2ccccc2F)C1 (configuration not stated)	–	0.006
COc1cccc(OCc2nc(C(=O)N3CCCCCC3)co2)c1	1.06	–
Cc1cccc(N2CCN(C(=O)CCC3(Cc4ccc5ccccc5c4)CCC(=O)N3)CC2)c1C (configuration not stated)	–	0.004
Cc1cc2ncn(Cc3cc(C(=O)N(C)C4CCOCC4)n[nH]3)c2cc1C	0.865	–
O=C(NCc1nc(NCCCc2ccccc2)c2ccccc2n1)c1ccoc1	–	0.865
CN(CCc1cnn(C)c1)c1nc2nonc2nc1NC1CCCC1	0.923	–
Cc1cc(C)n(-c2cccc(C(=O)NCC3Cc4cc(F)cc(-c5cccnc5)c4O3)c2)n1 (configuration not stated)	–	0.333

Structure (SMILES)	bacterial growth OD600 (polymyxin B 1 µg/mL)	bacterial growth OD600 (polymyxin B 0.75 µg/mL)
COc1ccc(CN2Cc3ccccc3OC(C)C2)c(OC)c1OC (configuration not stated)	–	0.807
CCn1cc(CN2CCC(n3nccc3NC(=O)C3CCCC3)CC2)cn1	0.847	–
Cc1c(C(=O)N2CCC(N3CCCC(O)C3)CC2)sc2ncnc(NCCC3=CCCCC3)c12 (configuration not stated)	–	0.881
COc1ccc(-c2ncc(CN3CC[C@@H](N4CCC(O)CC4)[C@H](O)C3)cn2)cc1	0.872	–
CCOC(=O)N1CCC(NC(=O)c2cc(NC(C)=O)c3c(c2)ncn3CCc2ccccn2)CC1	–	0.857
O=C1CC(NS(=O)(=O)N2CCCC2)CN1Cc1ccc(F)cc1 (configuration not stated)	0.914	–
COc1ccc(F)c(CN2CCc3c(C(=O)NCc4ccccc4OC)c(OC)cc(=O)n3CC2)c1	–	0.828
CCn1ccnc1CNCc1cccnc1Oc1ccc(F)c(F)c1	–	0.745
COc1cccc(-c2ccc(NC(=O)C3CCCN3S(C)(=O)=O)cc2)c1 (configuration not stated)	–	0.587
Cc1ncoc1C(=O)N1CCOC(Cc2ccccc2)C1 (configuration not stated)	–	0.88
COc1cccc(-c2cnc(-c3ccncc3)nc2C2CCN(C(=O)c3ccc4c(c3)OCO4)CC2)c1	–	0.004
CCN1CCN(C2(C(=O)N3CCCC(OC)C3)Cc3ccccc3C2)CC1 (configuration not stated)	–	0.782
CCN1C(=O)CC(CC(=O)N(C)CCc2cn[nH]c2)(c2cccc(C(F)(F)F)c2)C1=O (configuration not stated)	–	0.797
COc1cc(CC2(CCC(=O)NCCc3ccc(C(F)(F)F)cc3)CCC(=O)N2)ccc1F (configuration not stated)	–	0.742
NC(=O)[C@@H]1CCCN1c1ccc(-c2nc(CCCc3ccccc3)no2)cn1	–	0.63
CC(Cc1cnccn1)Nc1ccc(-c2nc(C3CC3)no2)cn1 (configuration not stated)	1.1	–

Retrieved by compound from above (2):
Structure (SMILES)	bacterial growth OD600 (polymyxin B 1 µg/mL)	bacterial growth OD600 (polymyxin B 0.75 µg/mL)
COc1cccc(-c2ccc(NC(=O)C3CCCN3S(C)(=O)=O)cc2)c1 (configuration not stated)	–	0.587
Cc1ncoc1C(=O)N1CCOC(Cc2ccccc2)C1 (configuration not stated)	–	0.88
